In article PMC10624633 one finds binding data, which are given here for 1 substance.

The chains behind the UniProt entries cited, without tags or fusion partners.
UniProt O75362: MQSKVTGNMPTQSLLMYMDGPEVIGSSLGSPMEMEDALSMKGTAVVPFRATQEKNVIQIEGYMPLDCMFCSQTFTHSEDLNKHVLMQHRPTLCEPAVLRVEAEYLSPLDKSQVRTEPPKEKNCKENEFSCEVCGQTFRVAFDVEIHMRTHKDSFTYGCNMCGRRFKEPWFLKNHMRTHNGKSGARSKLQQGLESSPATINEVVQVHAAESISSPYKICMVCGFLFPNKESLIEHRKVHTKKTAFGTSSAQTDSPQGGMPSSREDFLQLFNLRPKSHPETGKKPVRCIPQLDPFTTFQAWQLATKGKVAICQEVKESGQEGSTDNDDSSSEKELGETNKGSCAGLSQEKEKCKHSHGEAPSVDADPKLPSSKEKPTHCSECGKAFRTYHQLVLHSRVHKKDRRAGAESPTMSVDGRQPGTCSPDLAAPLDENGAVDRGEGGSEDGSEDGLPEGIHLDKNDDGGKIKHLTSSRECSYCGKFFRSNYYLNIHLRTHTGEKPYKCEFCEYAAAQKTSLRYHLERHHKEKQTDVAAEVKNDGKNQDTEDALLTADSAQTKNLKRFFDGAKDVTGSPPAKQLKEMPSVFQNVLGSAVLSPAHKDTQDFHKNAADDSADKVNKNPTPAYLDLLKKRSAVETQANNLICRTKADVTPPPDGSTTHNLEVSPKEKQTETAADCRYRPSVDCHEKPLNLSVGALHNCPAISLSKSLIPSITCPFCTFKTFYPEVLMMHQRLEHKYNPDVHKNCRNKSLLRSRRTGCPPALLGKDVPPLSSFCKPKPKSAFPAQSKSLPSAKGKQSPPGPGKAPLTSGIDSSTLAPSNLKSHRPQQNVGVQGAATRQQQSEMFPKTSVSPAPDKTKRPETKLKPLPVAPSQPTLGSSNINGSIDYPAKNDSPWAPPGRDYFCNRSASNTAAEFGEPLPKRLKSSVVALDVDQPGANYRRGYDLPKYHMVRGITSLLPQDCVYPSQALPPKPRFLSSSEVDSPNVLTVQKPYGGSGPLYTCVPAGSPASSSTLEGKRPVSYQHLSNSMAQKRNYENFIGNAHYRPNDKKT

No constants are given. Whether binding was seen depends on the method and setting. In cells and extracts the contact can be indirect. A yes stands for co-enrichment or nearness to the bait. Other partners may have been found.

The target of the experiment is n-Flag-ZNF217 (wild type) (human) (UniProt O75362). Nature of the experiment: affinity purification with mass spectrometry; lysates of ZNF217^KO cells ectopically expressing n-Flag-ZNF217 variants incubated with anti-FLAG M2 magnetic beads at 4 °C overnight; washed twice with TBS + 0.1% NP40 and twice with TBS; label-free (LFQ) mass spectrometry, compared to no-Flag ZNF217^WT control.

With CoREST 3 (from UniProt Q9P2K3 1-495), the binding entry is recorded as “binds”.
